# Laboratory results as given in the supplement of paper PMC12067093, “Discovery and optimisation of a covalent ligand for TRIM25 and its application to targeted protein ubiquitination” (Chemical Science, 2025).
# The other results are listed elsewhere or left out.
# Compound: Cc1cc(ccc1-c1ccccc1)C(=O)N1CCCN(CC1)C(=O)CCl [compound 10]
# Assay: probe-labelled cysteine peptide fold change vs DMSO (competition) (log2 fold change); higher = less target engagement (more negative = stronger competition)
# Settings: THP-1, incubation time: 4 h
# 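Also: competitive profiling in live THP-1 cells: cysteine peptides tagged with an iodoacetamide desthiobiotin (IA-DTB) probe, intensity after compound treatment relative to DMSO-treated cells.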
Target,probe-labelled cysteine peptide fold change (10 µM),probe-labelled cysteine peptide fold change (50 µM)
PRDX1_Q06830_71+83_KLNCQVIGASVDSHFCHLAWVNTPKK (UniProt Q06830),-0.0997,-0.853
PPT1_P50897_152_CPGESSHICDFIRK (UniProt P50897),-0.178,-0.505
PPP2R1A_P30153_377_DECPEVR (UniProt P30153),0.148,0.26
PRDX3_P30048_127_ANEFHDVNCEVVAVSVDSHFSHLAWINTPR (UniProt P30048),0.136,0.382
PREX1_Q8TCU6_867_CHVLEK (UniProt Q8TCU6),0.0843,-0.0476
PRAG1_Q86YV5_221_LAAFAGTTSGCHQGPGPLR (UniProt Q86YV5),-0.112,-0.152
PPP1R21_Q6ZMI0_696_SVHFYAECR (UniProt Q6ZMI0),-0.00803,0.238
PPM1B_O75688_279_SRLEVSDDLENVCNWVVDTCLHK (UniProt O75688),0.264,0.245
PPM1G_O15355_351_CVVSEAGK (UniProt O15355),-0.178,-0.105
PPP6R2_O75170_366_LMAALLHTNTPSINQELCR (UniProt O75170),0.207,0.414
PRCP_P42785_233_SGPHCSESIHR (UniProt P42785),0.268,0.331
PPP2R2D_Q66LE6_245_SFNIVDIKPANMEELTEVITAAEFHPHQCNVFVYSSSK (UniProt Q66LE6),-0.00789,-0.502
PREX1_Q8TCU6_234_TVCSNINETK (UniProt Q8TCU6),-0.00661,-0.0348
PPP1R27_Q86WC6_105_DEAGWTPLHIACSDGYPDIAR (UniProt Q86WC6),0.329,0.349
PPP2R5C_Q13362_513_ALEAHCR (UniProt Q13362),-0.164,-0.436
PPP2R1A_P30153_310+317_EFCENLSADCR (UniProt P30153),-0.111,0.164
PPWD1_Q96BP3_512_LFPVECPK (UniProt Q96BP3),-0.232,-0.00453
PPP2R5A_Q15172_72_DATSNEQQELFCQK (UniProt Q15172),0.0287,-0.096
PREPL_Q4J6C6_538_LNGLADLEACIK (UniProt Q4J6C6),0.14,0.28
PRAG1_Q86YV5_1087_DPVPALPTHPPAQEQDCVVVITR (UniProt Q86YV5),0.0639,0.257
PRDX1_Q06830_71_KLNCQVIGASVDSHFCHLAWVNTPK (UniProt Q06830),0.14,-0.0715

# Pulled one by one from above (two):
Target,probe-labelled cysteine peptide fold change (10 µM),probe-labelled cysteine peptide fold change (50 µM)
PPP2R1A_P30153_310+317_EFCENLSADCR (UniProt P30153),-0.111,0.164
PPP1R21_Q6ZMI0_696_SVHFYAECR (UniProt Q6ZMI0),-0.00803,0.238

# (list continues)

Target,probe-labelled cysteine peptide fold change (10 µM),probe-labelled cysteine peptide fold change (50 µM)
PPP6R3_Q5H9R7_467_IANCIVHSTDK (UniProt Q5H9R7),0.0425,-0.0919
PPM1B_O75688_172_NGQVCFSTQDHKPCNPR (UniProt O75688),-0.201,-0.478
PPP6R2_O75170_87_FKYPNTACELLTCDVPQISDR (UniProt O75170),-0.0517,-0.285
PPP6R2_O75170_880_LLSPACPAPK (UniProt O75170),-0.471,0.267
PREX1_Q8TCU6_1314_CTDTELQLR (UniProt Q8TCU6),0.174,0.186
PPP1R12A_O14974_48_VKFDDGAVFLAACSSGDTDEVLK (UniProt O14974),0.0931,-0.22
PPP4R2_Q9NY27_22_EVCPVLDQFLCHVAK (UniProt Q9NY27),-0.179,-0.365
PPP6R3_Q5H9R7_216_HSNASQSLCEIVR (UniProt Q5H9R7),0.0266,-0.00422
PPP4R2_Q9NY27_105_LCELLTDPR (UniProt Q9NY27),0.0683,0.148
PPP6R1_Q9UPN7_437_HLLQQCR (UniProt Q9UPN7),-0.00658,0.0142
PREP_P48147_25_ICDPYAWLEDPDSEQTK (UniProt P48147),0.89,0.929
PPP1R3D_O95685_279_YQVAGAEYWDNNDHRDYSLTCR (UniProt O95685),-0.00214,-0.126
PRC1_O43663_531_LPPSGSKPVAASTCSGK (UniProt O43663),0.383,0.215
PPP1CB_P62140_201_RIMRPTDVPDTGLLCDLLWSDPDK (UniProt P62140),0.0748,0.169
PPM1A_P35813_72_YCCEHLLDHITNNQDFK (UniProt P35813),0.0202,-0.0868
PREPL_Q4J6C6_391_LPPWACGFIMDTNSDPK (UniProt Q4J6C6),-0.0878,-0.273
PPP6R3_Q5H9R7_216_LVEIVHPSQEEDRHSNASQSLCEIVR (UniProt Q5H9R7),0.00978,-0.0251
PRDX2_P32119_172_LVQAFQYTDEHGEVCPAGWKPGSDTIK (UniProt P32119),-0.0956,0.443
PREX1_Q8TCU6_52_LCVLNEILGTERDYVGTLR (UniProt Q8TCU6),-0.0586,-0.351
PPP1R8_Q12972_58_NPDLCDFTIDHQSCSR (UniProt Q12972),0.202,0.123
